For one substance, binding results are on record in article PMC11695708.

The chains behind the UniProt entries cited, without tags or fusion partners.
UniProt O00429: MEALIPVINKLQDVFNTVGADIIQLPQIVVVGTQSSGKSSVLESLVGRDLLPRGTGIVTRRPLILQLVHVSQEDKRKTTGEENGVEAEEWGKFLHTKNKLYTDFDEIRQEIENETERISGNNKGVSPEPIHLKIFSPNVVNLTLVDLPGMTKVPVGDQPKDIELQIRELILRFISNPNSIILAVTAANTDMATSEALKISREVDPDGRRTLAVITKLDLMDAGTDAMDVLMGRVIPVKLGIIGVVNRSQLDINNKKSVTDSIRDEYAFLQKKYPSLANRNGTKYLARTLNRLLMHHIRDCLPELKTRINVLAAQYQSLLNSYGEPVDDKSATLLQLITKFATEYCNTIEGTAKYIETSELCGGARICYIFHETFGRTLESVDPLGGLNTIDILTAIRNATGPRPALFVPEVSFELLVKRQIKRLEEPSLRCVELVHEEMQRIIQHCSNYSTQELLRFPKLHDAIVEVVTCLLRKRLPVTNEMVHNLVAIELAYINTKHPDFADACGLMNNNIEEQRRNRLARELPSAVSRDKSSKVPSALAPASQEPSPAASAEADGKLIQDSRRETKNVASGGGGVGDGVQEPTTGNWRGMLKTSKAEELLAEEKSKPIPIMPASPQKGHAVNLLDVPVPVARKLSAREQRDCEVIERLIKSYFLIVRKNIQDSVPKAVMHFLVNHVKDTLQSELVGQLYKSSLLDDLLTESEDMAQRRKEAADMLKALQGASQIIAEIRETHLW
UniProt P21333: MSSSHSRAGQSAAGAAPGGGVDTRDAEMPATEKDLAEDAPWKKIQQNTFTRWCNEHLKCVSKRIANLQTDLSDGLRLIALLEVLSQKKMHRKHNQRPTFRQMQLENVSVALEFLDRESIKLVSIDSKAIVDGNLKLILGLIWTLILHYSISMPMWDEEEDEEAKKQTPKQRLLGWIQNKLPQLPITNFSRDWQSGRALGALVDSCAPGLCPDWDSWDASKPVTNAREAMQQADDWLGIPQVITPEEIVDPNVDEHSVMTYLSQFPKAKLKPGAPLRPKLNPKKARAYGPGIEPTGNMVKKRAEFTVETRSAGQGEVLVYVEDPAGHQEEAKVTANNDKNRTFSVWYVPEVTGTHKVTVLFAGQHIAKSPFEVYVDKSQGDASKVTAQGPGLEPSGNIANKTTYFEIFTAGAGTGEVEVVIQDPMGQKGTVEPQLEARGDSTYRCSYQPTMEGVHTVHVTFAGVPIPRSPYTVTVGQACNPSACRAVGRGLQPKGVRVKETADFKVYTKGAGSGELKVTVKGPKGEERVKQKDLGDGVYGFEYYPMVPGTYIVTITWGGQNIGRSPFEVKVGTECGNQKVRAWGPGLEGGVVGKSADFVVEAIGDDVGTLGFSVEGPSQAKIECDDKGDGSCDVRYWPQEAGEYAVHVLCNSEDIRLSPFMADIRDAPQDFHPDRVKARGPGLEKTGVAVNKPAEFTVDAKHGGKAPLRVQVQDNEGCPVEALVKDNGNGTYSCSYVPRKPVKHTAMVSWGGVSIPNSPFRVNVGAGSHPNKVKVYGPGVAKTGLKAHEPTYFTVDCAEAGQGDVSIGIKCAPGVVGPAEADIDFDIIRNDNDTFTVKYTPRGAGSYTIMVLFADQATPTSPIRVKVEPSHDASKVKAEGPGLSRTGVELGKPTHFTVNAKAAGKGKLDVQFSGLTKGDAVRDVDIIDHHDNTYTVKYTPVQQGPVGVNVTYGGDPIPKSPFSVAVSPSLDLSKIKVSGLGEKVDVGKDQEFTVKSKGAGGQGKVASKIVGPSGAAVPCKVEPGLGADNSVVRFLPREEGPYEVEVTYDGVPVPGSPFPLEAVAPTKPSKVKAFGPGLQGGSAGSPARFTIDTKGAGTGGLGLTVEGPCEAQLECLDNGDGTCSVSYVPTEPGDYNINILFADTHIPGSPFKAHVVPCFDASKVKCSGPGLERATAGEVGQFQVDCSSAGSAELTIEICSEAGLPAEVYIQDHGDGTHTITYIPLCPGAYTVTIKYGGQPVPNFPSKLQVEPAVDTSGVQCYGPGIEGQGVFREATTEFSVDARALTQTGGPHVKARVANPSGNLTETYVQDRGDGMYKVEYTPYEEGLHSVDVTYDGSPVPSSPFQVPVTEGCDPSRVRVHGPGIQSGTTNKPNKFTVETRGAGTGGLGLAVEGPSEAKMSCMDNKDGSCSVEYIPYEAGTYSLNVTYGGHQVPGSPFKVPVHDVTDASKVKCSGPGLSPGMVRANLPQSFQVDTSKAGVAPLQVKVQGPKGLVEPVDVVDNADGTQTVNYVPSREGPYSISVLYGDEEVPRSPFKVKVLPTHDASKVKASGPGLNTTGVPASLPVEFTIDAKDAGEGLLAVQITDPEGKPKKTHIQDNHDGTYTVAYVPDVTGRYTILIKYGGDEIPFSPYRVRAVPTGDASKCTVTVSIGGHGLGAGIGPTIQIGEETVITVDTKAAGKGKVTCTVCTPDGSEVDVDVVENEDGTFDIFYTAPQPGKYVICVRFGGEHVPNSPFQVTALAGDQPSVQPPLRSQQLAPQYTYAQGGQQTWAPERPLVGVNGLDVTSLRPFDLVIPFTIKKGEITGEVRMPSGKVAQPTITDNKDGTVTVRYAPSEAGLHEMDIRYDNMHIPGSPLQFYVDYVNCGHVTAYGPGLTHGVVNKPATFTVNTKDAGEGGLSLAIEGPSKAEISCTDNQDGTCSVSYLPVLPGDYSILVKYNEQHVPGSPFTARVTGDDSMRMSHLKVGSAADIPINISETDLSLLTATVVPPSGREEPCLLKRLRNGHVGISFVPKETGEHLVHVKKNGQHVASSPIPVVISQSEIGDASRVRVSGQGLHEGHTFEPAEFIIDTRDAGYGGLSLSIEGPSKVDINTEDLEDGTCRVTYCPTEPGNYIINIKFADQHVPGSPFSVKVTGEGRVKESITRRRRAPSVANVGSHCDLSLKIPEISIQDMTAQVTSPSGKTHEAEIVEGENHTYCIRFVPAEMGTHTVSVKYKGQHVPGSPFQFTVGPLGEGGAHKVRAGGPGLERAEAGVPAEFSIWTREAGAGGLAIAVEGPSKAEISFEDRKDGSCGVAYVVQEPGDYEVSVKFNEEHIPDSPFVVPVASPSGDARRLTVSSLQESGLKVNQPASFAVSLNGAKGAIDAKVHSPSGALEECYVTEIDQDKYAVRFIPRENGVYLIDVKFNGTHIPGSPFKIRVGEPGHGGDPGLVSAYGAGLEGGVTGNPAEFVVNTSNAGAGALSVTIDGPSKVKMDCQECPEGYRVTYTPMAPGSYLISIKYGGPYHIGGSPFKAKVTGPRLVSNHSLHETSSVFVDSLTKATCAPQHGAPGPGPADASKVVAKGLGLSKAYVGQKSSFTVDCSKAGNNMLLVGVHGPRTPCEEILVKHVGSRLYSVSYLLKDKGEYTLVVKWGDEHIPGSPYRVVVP

The experiment has as its target FLAG-Drp1 wild-type (dynamin-related protein 1) (UniProt O00429). Description: co-IP; FLAG-Drp1 immunoprecipitated from 293 T cells transfected with FLAG-Drp1 WT or EA, under normoxia or hypoxia; FLNa looked for in the precipitate.

Results are given in words; binding and its absence hold for the method and conditions named. In cells and extracts the contact can be indirect. Some entries that bind do so weakly or less than the wild type.

Regarding “filamin A (FLNa) (from UniProt P21333 1-2647)”, the binding entry is “binds”.
